PubChem BioAssay AID504744, Drosophila RNAi Screening Center | 2011
The screen tested about 23,000 reagents; this is an unselected part of those with a known target gene and a result. Of all reagents, 98 (0.43%) are marked active. 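Only hit calls are given; the phospho-dAkt signals, z-scores and hit direction were not deposited.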 A plus sign joins genes that one reagent is predicted to hit.

Screen: 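Identify dsRNAs that increase or decrease phospho-dAkt after insulin treatment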 (primary screen)
Cell system: Drosophila Kc167 cells
Knock-down reagent: long dsRNA against Drosophila genes, 250 ng dsRNA per well of a 384-well plate
Timing: 3 days of knock-down, then overnight serum-free starvation before stimulation
Challenge: bovine insulin at 387 nM for 10 minutes after 12 h without serum
Read-out: 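Per-well phospho-dAkt level from an in-cell fluorescent antibody stain, divided by a DNA-dye signal; log2 residuals turned into z-scores that take cell number into account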
Call rule: 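Hit in the insulin screen when the two-replicate mean z-score is more extreme than plus or minus 2.5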

no.	Gene	amplicon	outcome
1	fzr2	DRSC04280	inactive
2	CG2926	DRSC12321	inactive
3	Gr58c	DRSC04136	inactive
4	htk	DRSC20029	inactive
5	htk	DRSC20031	inactive
6	CG6277	DRSC16008	inactive
7	Prp31	DRSC10735	inactive
8	CG12674	DRSC00348	inactive
9	CG18327	DRSC06722	inactive
10	CG31817	DRSC01537	inactive
11	CG31817	DRSC01538	inactive
12	CG31817	DRSC22476	inactive
13	CG4004	DRSC19791	inactive
14	CG4004	DRSC19882	inactive
15	bsd	DRSC05953	inactive
16	Hen1	DRSC06139	inactive
17	Hen1	DRSC06140	inactive
18	CG13871	DRSC06430	inactive
19	CG7142	DRSC16204	inactive
20	bdl	DRSC00271	inactive
21	r	DRSC19813	inactive
22	r	DRSC19814	inactive
23	Psn	DRSC11743	inactive
24	Pcmt	DRSC12363	inactive
25	Ada3	DRSC20321	inactive
26	Ada3	DRSC20322	inactive
27	RpL24	DRSC03185	inactive
28	cup	DRSC03516	inactive
29	foxo	DRSC13017	inactive
30	foxo	DRSC15463	active
31	Edg91	DRSC16657	inactive
32	CG14455	DRSC11712	inactive
33	Dbct	DRSC19951	inactive
34	CG8292	DRSC03082	inactive
35	eIF4B	DRSC20983	inactive
36	Pde6	DRSC16401	inactive
37	Pde6	DRSC16402	inactive
38	Pde6	DRSC16403	inactive
39	Grip	DRSC17940	inactive
40	Grip	DRSC18395	inactive
41	CG14314	DRSC14793	inactive
42	HisT	DRSC05051	inactive
43	HisT	DRSC05052	inactive
44	HisT	DRSC06405	active
45	CG15269	DRSC01942	inactive
46	CG2983	DRSC00558	inactive
47	egh	DRSC18771	inactive
48	CG10654	DRSC09767	inactive
49	CG7367	DRSC03049	inactive
50	Drak	DRSC19778	inactive
51	Pop5	DRSC10074	inactive
52	piwi	DRSC03592	inactive
53	CG18542 + CG32939	DRSC15342	inactive
54	BckdhB	DRSC21183	inactive
55	CG13171	DRSC06299	inactive
56	Cc2d2a	DRSC06750	inactive
57	Gp150	DRSC04618	inactive
58	lush	DRSC11364	inactive
59	S-Lap7	DRSC06374	inactive
60	Aatf	DRSC02131	inactive
61	pncr003:2L (retired record)	DRSC22149	inactive
62	Cyp6g2	DRSC07387	inactive
63	CG15020	DRSC08474	inactive
64	Dh31	DRSC02196	inactive

No new results follow: 10 of the entries above.
no.	Gene	amplicon	outcome
43	HisT	DRSC05052	inactive
44	HisT	DRSC06405	active
45	CG15269	DRSC01942	inactive
46	CG2983	DRSC00558	inactive
47	egh	DRSC18771	inactive
48	CG10654	DRSC09767	inactive
49	CG7367	DRSC03049	inactive
50	Drak	DRSC19778	inactive
51	Pop5	DRSC10074	inactive
52	piwi	DRSC03592	inactive

Additional records follow.
no.	Gene	amplicon	outcome
65	lmgA + lmgB	DRSC03566	inactive
66	Tmem43	DRSC10964	inactive
67	CG12020	DRSC08226	inactive
68	Tsp42Er	DRSC06183	inactive
69	CG4835	DRSC10452	inactive
70	rush	DRSC18568	inactive
71	Dap160	DRSC03313	inactive
72	ND-B22	DRSC03193	inactive
73	kto	DRSC10983	inactive
74	CG5355	DRSC02844	inactive
75	ETHR	DRSC15915	inactive
76	CG33679	DRSC01436	inactive
77	Aps	DRSC10629	inactive
78	Eig71Ee	DRSC11152	inactive
79	Or94a	DRSC16772	inactive
80	FucTD	DRSC08634	inactive
81	CG10486	DRSC09735	inactive
82	GEFmeso	DRSC06748	inactive
83	GEFmeso	DRSC06940	inactive
84	GEFmeso	DRSC21475	inactive
85	link	DRSC06368	inactive
86	Spt-I	DRSC06860	inactive
87	CG13698	DRSC10047	inactive
88	CG4294	DRSC04460	inactive
89	CG12164	DRSC06115	inactive
90	CG12164	DRSC21777	inactive
91	SuUR	DRSC11292	inactive
92	CG30105	DRSC05668	inactive
93	CG17917	DRSC12570	inactive
94	CG17075	DRSC00483	inactive
95	CG1463	DRSC19603	inactive
96	nompB	DRSC03701	inactive
97	nompB	DRSC03731	inactive
98	Desat1	DRSC16668	inactive
99	CG6928	DRSC10749	inactive
100	CG44836	DRSC09915	inactive
101	Acbp2	DRSC11141	inactive
102	CG14568	DRSC11729	inactive
103	Unr	DRSC10761	inactive
104	cv-c	DRSC14969	inactive
105	cv-c	DRSC14970	inactive
106	cv-c	DRSC14971	inactive
107	cv-c	DRSC14972	inactive
108	cv-c	DRSC14973	inactive
109	cv-c	DRSC16428	inactive
110	CG42686 (retired record)	DRSC15247	inactive
111	CG42686 (retired record)	DRSC15248	inactive
112	CG31624	DRSC02617	inactive
113	ppk12	DRSC04086	inactive
114	AspRS-m	DRSC02646	inactive
115	tsl	DRSC17090	inactive
116	CG5986	DRSC15931	inactive
117	CG5381	DRSC02852	inactive
118	RpS27	DRSC14244	inactive
119	CG9503	DRSC20186	inactive
120	CG9503	DRSC21766	inactive
121	CG14631	DRSC17792	inactive
122	CG14631	DRSC17941	inactive
123	RpL23A	DRSC08694	inactive
124	RpL23A	DRSC22035	inactive
125	CG5516	DRSC15826	inactive
126	CG5516	DRSC21753	inactive
127	daed	DRSC00299	inactive
128	Fit2	DRSC10908	inactive
129	CG40298	DRSC22274	inactive
130	CG31988	DRSC22491	inactive
131	CG5112	DRSC15718	inactive
132	CG6454	DRSC16044	inactive
133	Fem-1	DRSC07322	inactive
134	PGRP-SC2	DRSC06481	inactive
135	Prip	DRSC07044	inactive
136	AdamTS-A	DRSC14992	inactive
137	AdamTS-A	DRSC15966	inactive
138	COX5B	DRSC02115	inactive
139	crok	DRSC02593	inactive
140	crok	DRSC21349	inactive
141	CG14088	DRSC10092	inactive
142	SLIRP1 + anox	DRSC20542	inactive
143	CG5828	DRSC02900	inactive
144	CG34175	DRSC00424	inactive
145	CG17140 + CG17139	DRSC02585	inactive
146	CG17140 + CG17139	DRSC02586	inactive
147	SmydA-7	DRSC07340	inactive
148	Cad99C	DRSC15050	inactive
149	Cad99C	DRSC16317	inactive
150	CG13526	DRSC04168	inactive
151	CG42633	DRSC16061	inactive
152	CG2218	DRSC15428	inactive
153	CG8065	DRSC10959	inactive
154	Nnp-1	DRSC02165	inactive
155	CG42675	DRSC12157	inactive
156	CG42675	DRSC21868	inactive
157	BTBD9	DRSC18148	inactive
158	BTBD9	DRSC22371	inactive
